Experimental findings from patent US20220074941A1, “HSP90 COMBINATION THERAPY” (Sloan-Kettering Institute for Cancer Research, priority 2011, published 2022) are described below.

The subject of data set [1] is Hsp90 complexes in Mia-PaCa-2 cell extract. Kind of data set: Nano-LC-MS/MS of PU-beads pull-downs. The class given is binding, human. The following applies: protein identified in PU-beads pull-down of Mia-Paca 2 extract; QSTAR-Elite QTof MS. In a few lines:
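Lysates pre-cleared overnight at 4 °C with control beads underwent PU-bead pull-down; bound proteins were SDS-eluted, gel-separated, digested and analyzed by nano-LC-MS/MS on a QTof. Identifications used significance p<0.05, 0.4 Da tolerances and one missed cleavage; unique peptide (spectral) counts and sequence coverage were reported.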

Data set [2] has as its system Hsp90 complexes in K562 cell extract. Kind of data set: Nano-LC-MS/MS of PU-beads pull-downs. It counts as binding. The following applies: protein identified in PU-beads pull-down of K562 extract, QSTAR-Elite QTof MS. In a few lines:
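Lysates pre-cleared overnight at 4 °C with control beads, then pulled down with PU-beads or control beads; eluted proteins (2% SDS boil) gel-separated and analysed by nano LC-MS/MS on a QTof. Mascot identification (p<0.05), spectral counts and sequence coverage evaluated in Scaffold.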

B1: MTA2 (protein, UniProt O94776 1-668, looked up)
Metastasis-associated protein …: MAANMYRVGDYVYFENSSSNPYLVRRIEELNKTANGNVEAKVVCLFRRRDISSSLNSLADSNAREFEEESKQPGVSEQQRHQLKHRELFLSRQFESLPATHIRGKCSVTLLNETDILSQYLEKEDCFFYSLVFDPVQKTLLADQGEIRVGCKYQAEIPDRLVEGESDNRNQQKMEMKVWDPDNPLTDRQIDQFLVVARAVGTFARALDCSSSIRQPSLHMSAAAASRDITLFHAMDTLQRNGYDLAKAMSTLVPQGGPVLCRDEMEEWSASEAMLFEEALEKYGKDFNDIRQDFLPWKSLASIVQFYYMWKTTDRYIQQKRLKAAEADSKLKQVYIPTYTKPNPNQIISVGSKPGMNGAGFQKGLTCESCHTTQSAQWYAWGPPNMQCRLCASCWIYWKKYGGLKTPTQLEGATRGTTEPHSRGHLSRPEAQSLSPYTTSANRAKLLAKNRQTFLLQTTKLTRLARRMCRDLLQPRRAARRPYAPINANAIKAECSIRLPKAAKTPLKIHPLVRLPLATIVKDLVAQAPLKPKTPRGTKTPINRNQLSQNRGLGGIMVKRAYETMAGAGVPFSANGRPLASGIRSSSQPAAKRQKLNPADAPNPVVFVATKDTRALRKALTHLEMRRAARRPNLPLKVKPTLIAVRPPVPLPAPSHPASTNEPIVLED
In the case of B1, in data set [1], the “Number of Assigned Spectra, Mia-Paca 2” value came out at 3. Further, in data set [2], the “Number of Assigned Spectra, K562 Prep 1” value stood at 14 and the “Number of Assigned Spectra, K562 Prep 2” value is listed as 12.

B2: PPP2R1B (protein, UniProt P30154 2-601, looked up)
Serine/threonine-protein …: AGASELGTGPGAAGGDGDDSLYPIAVLIDELRNEDVQLRLNSIKKLSTIALALGVERTRSELLPFLTDTIYDEDEVLLALAEQLGNFTGLVGGPDFAHCLLPPLENLATVEETVVRDKAVESLRQISQEHTPVALEAYFVPLVKRLASGDWFTSRTSACGLFSVCYPRASNAVKAEIRQQFRSLCSDDTPMVRRAAASKLGEFAKVLELDSVKSEIVPLFTSLASDEQDSVRLLAVEACVSIAQLLSQDDLETLVMPTLRQAAEDKSWRVRYMVADRFSELQKAMGPKITLNDLIPAFQNLLKDCEAEVRAAAAHKVKELGENLPIEDRETIIMNQILPYIKELVSDTNQHVKSALASVIMGLSTILGKENTIEHLLPLFLAQLKDECPDVRLNIISNLDCVNEVIGIRQLSQSLLPAIVELAEDAKWRVRLAIIEYMPLLAGQLGVEFFDEKLNSLCMAWLVDHVYAIREAATNNLMKLVQKFGTEWAQNTIVPKVLVMANDPNYLHRMTTLFCINALSEACGQEITTKQMLPIVLKMAGDQVANVRFNVAKSLQKIGPILDTNALQGEVKPVLQKLGQDEDMDVKYFAQEAISVLALA
B2: the “Number of Assigned Spectra, Mia-Paca 2” value in data set [1] is listed as 0. Besides, in data set [2], the “Number of Assigned Spectra, K562 Prep 1” value was determined as 3 and the “Number of Assigned Spectra, K562 Prep 2” value was 2.

B3: PPP2R2A (protein, UniProt P63151 2-447, looked up)
Serine/threonine-protein …: AGAGGGNDIQWCFSQVKGAVDDDVAEADIISTVEFNHSGELLATGDKGGRVVIFQQEQENKIQSHSRGEYNVYSTFQSHEPEFDYLKSLEIEEKINKIRWLPQKNAAQFLLSTNDKTIKLWKISERDKRPEGYNLKEEDGRYRDPTTVTTLRVPVFRPMDLMVEASPRRIFANAHTYHINSISINSDYETYLSADDLRINLWHLEITDRSFNIVDIKPANMEELTEVITAAEFHPNSCNTFVYSSSKGTIRLCDMRASALCDRHSKLFEEPEDPSNRSFFSEIISSISDVKFSHSGRYMMTRDYLSVKIWDLNMENRPVETYQVHEYLRSKLCSLYENDCIFDKFECCWNGSDSVVMTGSYNNFFRMFDRNTKRDITLEASRENNKPRTVLKPRKVCASGKRKKDEISVDSLDFNKKILHTAWHPKENIIAVATTNNLYIFQDKVN
On to B3, for which, in data set [1], the “Number of Assigned Spectra, Mia-Paca 2” value was determined as 5. In data set [2], the “Number of Assigned Spectra, K562 Prep 1” value turned out to be 9 and the “Number of Assigned Spectra, K562 Prep 2” value came to 1.

B4: TRMT112 (protein, UniProt Q9UI30 1-125, looked up)
Multifunctional …: MKLLTHNLLSSHVRGVGSRGFPLRLQATEVRICPVEFNPNFVARMIPKVEWSAFLEAADNLRLIQVPKGPVEGYEENEEFLRTMHHLLLEVEVIEGTLQCPESGRMFPISRGIPNMLLSEEETES
B4: the “Number of Assigned Spectra, Mia-Paca 2” value in data set [1] came to 3. In data set [2], the “Number of Assigned Spectra, K562 Prep 1” value turned out to be 0 and the “Number of Assigned Spectra, K562 Prep 2” value is reported as 0.

B5: SERBP1 (protein, UniProt Q8NC51 2-408, looked up)
SERPINE1 mRNA-binding protein …: PGHLQEGFGCVVTNRFDQLFDDESDPFEVLKAAENKKKEAGGGGVGGPGAKSAAQAAAQTNSNAAGKQLRKESQKDRKNPLPPSVGVVDKKEETQPPVALKKEGIRRVGRRPDQQLQGEGKIIDRRPERRPPRERRFEKPLEEKGEGGEFSVDRPIIDRPIRGRGGLGRGRGGRGRGMGRGDGFDSRGKREFDRHSGSDRSSFSHYSGLKHEDKRGGSGSHNWGTVKDELTESPKYIQKQISYNYSDLDQSNVTEETPEGEEHHPVADTENKENEVEEVKEEGPKEMTLDEWKAIQNKDRAKVEFNIRKPNEGADGQWKKGFVLHKSKSEEAHAEDSVMDHHFRKPANDITSQLEINFGDLGRPGRGGRGGRGGRGRGGRPNRGSRTDKSSASAPDVDDPEAFPALA
Turning to B5, the “Number of Assigned Spectra, Mia-Paca 2” value in data set [1] is on record as 16. For the same molecule, in data set [2], the “Number of Assigned Spectra, K562 Prep 1” value is listed as 0 and the “Number of Assigned Spectra, K562 Prep 2” value was determined as 6.

B6: TGFBRAP1 (protein, UniProt Q8WUH2 1-860, looked up)
Transforming growth …: MMSIKAFTLVSAVERELLMGDKERVNIECVECCGRDLYVGTNDCFVYHFLLEERPVPAGPATFTATKQLQRHLGFKKPVNELRAASALNRLLVLCDNSISLVNMLNLEPVPSGARIKGAATFALNENPVSGDPFCVEVCIISVKRRTIQMFLVYEDRVQIVKEVSTAEQPLAVAVDGHFLCLALTTQYIIHNYSTGVSQDLFPYCSEERPPIVKRIGRQEFLLAGPGGLGMFATVAGISQRAPVHWSENVIGAAVSFPYVIALDDEFITVHSMLDQQQKQTLPFKEGHILQDFEGRVIVATSKGVYILVPLPLEKQIQDLLASRRVEEALVLAKGARRNIPKEKFQVMYRRILQQAGFIQFAQLQFLEAKELFRSGQLDVRELISLYPFLLPTSSSFTRSHPPLHEYADLNQLTQGDQEKMAKCKRFLMSYLNEVRSTEVANGYKEDIDTALLKLYAEADHDSLLDLLVTENFCLLTDSAAWLEKHKKYFALGLLYHYNNQDAAAVQLWVNIVNGDVQDSTRSDLYEYIVDFLTYCLDEELVWAYADWVLQKSEEVGVQVFTKRPLDEQQKNSFNPDDIINCLKKYPKALVKYLEHLVIDKRLQKEEYHTHLAVLYLEEVLLQRASASGKGAEATETQAKLRRLLQKSDLYRVHFLLERLQGAGLPMESAILHGKLGEHEKALHILVHELQDFAAAEDYCLWCSEGRDPPHRQQLFHTLLAIYLHAGPTAHELAVAAVDLLNRHATEFDAAQVLQMLPDTWSVQLLCPFLMGAMRDSIHARRTMQVALGLARSENLIYTYDKMKLKGSSIQLSDKKLCQICQNPFCEPVFVRYPNGGLVHTHCAASRHTNPSSSSPGTRT
As to B6, the “Number of Assigned Spectra, Mia-Paca 2” value in data set [1] worked out at 0. Also, in data set [2], the “Number of Assigned Spectra, K562 Prep 1” value is reported as 1 and the “Number of Assigned Spectra, K562 Prep 2” value was found to be 0.

B7: PPP6R1 (protein, UniProt Q9UPN7 1-881, looked up)
Serine/threonine-protein …: MFWKFDLHTSSHLDTLLEREDLSLPELLDEEDVLQECKVVNRKLLDFLLQPPHLQAMVAWVTQEPPDSGEERLRYKYPSVACEILTSDVPQINDALGADESLLNRLYGFLQSTGSLNPLLASFFSKVMGILINRKTDQLVSFLRKKDDFVDLLLQHIGTSAIMDLLLRLLTCVERPQLRQDVVNWLNEEKIVQRLIEQIHPSKDENQHSNASQSLCDIIRLSREQMIQVQDSPEPDQLLATLEKQETIEQLLSNMFEGEQSQSVIVSGIQVLLTLLEPRRPRSESVTVNSFFSSVDGQLELLAQGALESTVSSVGALHALRPRLSCFHQLLLEPPKLEPLQMTWGMLAPPLGNTRLHVVKLLASALSANDAALTHELLALDVPNTMLDLFFHYVFNNFLHAQVEGCVSTMLSLGPPPDSSPETPIQNPVVKHLLQQCRLVERILTSWEENDRVQCAGGPRKGYMGHLTRVAGALVQNTEKGPNAEQLRQLLKELPSEQQEQWEAFVSGPLAETNKKNMVDLVNTHHLHSSSDDEDDRLKEFNFPEEAVLQQAFMDFQMQRMTSAFIDHFGFNDEEFGEQEESVNAPFDKTANITFSLNADDENPNANLLEICYKDRIQQFDDDEEEEDEEEAQGSGESDGEDGAWQGSQLARGARLGQPPGVRSGGSTDSEDEEEEDEEEEEDEEGIGCAARGGATPLSYPSPGPQPPGPSWTATFDPVPTDAPTSPRVSGEEELHTGPPAPQGPLSVPQGLPTQSLASPPARDALQLRSQDPTPPSAPQEATEGSKVTEPSAPCQALVSIGDLQATFHGIRSAPSSSDSATRDPSTSVPASGAHQPPQTTEGEKSPEPLGLPQSQSAQALTPPPIPNGSAPEGPASPGSQ
As for B7, the “Number of Assigned Spectra, Mia-Paca 2” value in data set [1] came out at 5. In data set [2], the “Number of Assigned Spectra, K562 Prep 1” value was 5 and the “Number of Assigned Spectra, K562 Prep 2” value was determined as 2.

B8: PPP5C (protein, UniProt P53041 2-499, looked up)
Serine/threonine-protein …: AMAEGERTECAEPPRDEPPADGALKRAEELKTQANDYFKAKDYENAIKFYSQAIELNPSNAIYYGNRSLAYLRTECYGYALGDATRAIELDKKYIKGYYRRAASNMALGKFRAALRDYETVVKVKPHDKDAKMKYQECNKIVKQKAFERAIAGDEHKRSVVDSLDIESMTIEDEYSGPKLEDGKVTISFMKELMQWYKDQKKLHRKCAYQILVQVKEVLSKLSTLVETTLKETEKITVCGDTHGQFYDLLNIFELNGLPSETNPYIFNGDFVDRGSFSVEVILTLFGFKLLYPDHFHLLRGNHETDNMNQIYGFEGEVKAKYTAQMYELFSEVFEWLPLAQCINGKVLIMHGGLFSEDGVTLDDIRKIERNRQPPDSGPMCDLLWSDPQPQNGRSISKRGVSCQFGPDVTKAFLEENNLDYIIRSHEVKAEGYEVAHGGRCVTVFSAPNYCDQMGNKASYIHLQGSDLRPQFHQFTAVPHPNVKPMAYANTLLQLGMM
Take B8: in data set [1], the “Number of Assigned Spectra, Mia-Paca 2” value is 0. In addition, in data set [2], the “Number of Assigned Spectra, K562 Prep 1” value was 3 and the “Number of Assigned Spectra, K562 Prep 2” value is given as 1.
